{"source": "PubChem BioAssay AID1259254 – NCATS, 2017", "aim": "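Genome-wide screen for genes that prevent DNA re-replication in cancer cells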 (primary screen)", "cell system": "human HCT116 colorectal cancer cells", "reagent": "single siRNA against human genes", "time to read-out": "3 days", "measured": "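Imaged Hoechst DNA stain sorts each cell into a cycle phase by DNA amount; per plate, G2 fraction set to 0% for non-targeting and 100% for GMNN siRNA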", "scale": "G2 robust z-score and G2 cells, % of GMNN control: higher = more G2 cells, more excess DNA replication", "hit rule": "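Active siRNAs have a G2 robust z of 5 or more median absolute deviations over the median, which in these data means about 38% or higher of GMNN control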", "note": "In all, the deposit lists about 59,000 reagents; this is an unselected part. About 1,550 of them (2.6%) count as active. 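G2 share is only a proxy for re-replication; each gene was hit by three separate siRNAs, and active genes were retested.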 A number with no mark means an inactive call. Not all columns of the deposit are shown. No sequences are given here. The record does not give: the amount of reagent."}
{"Target gene": "VEGFC (vascular endothelial growth factor C)", "PubChem SID": "SID160718745", "G2 robust z-score": 0.74, "G2 cells, % of GMNN control": 8.17}
{"Target gene": "VEGFC (vascular endothelial growth factor C)", "PubChem SID": "SID160718746", "G2 robust z-score": 0.608, "G2 cells, % of GMNN control": 7.25}
{"Target gene": "VEGFC (vascular endothelial growth factor C)", "PubChem SID": "SID160718747", "G2 robust z-score": -1.2, "G2 cells, % of GMNN control": -5.48}
{"Target gene": "PUM2 (pumilio RNA binding family member 2)", "PubChem SID": "SID160736129", "G2 robust z-score": -0.414, "G2 cells, % of GMNN control": 0.0539}
{"Target gene": "PUM2 (pumilio RNA binding family member 2)", "PubChem SID": "SID160736130", "G2 robust z-score": 1.68, "G2 cells, % of GMNN control": 14.8}
{"Target gene": "PUM2 (pumilio RNA binding family member 2)", "PubChem SID": "SID160736131", "G2 robust z-score": -1.68, "G2 cells, % of GMNN control": -8.85}
{"Target gene": "ZYG11B (zyg-11 family member B, cell cycle regulator)", "PubChem SID": "SID160749226", "G2 robust z-score": -0.636, "G2 cells, % of GMNN control": -1.51}
{"Target gene": "ZYG11B (zyg-11 family member B, cell cycle regulator)", "PubChem SID": "SID160749227", "G2 robust z-score": 0.719, "G2 cells, % of GMNN control": 8.03}
{"Target gene": "ZYG11B (zyg-11 family member B, cell cycle regulator)", "PubChem SID": "SID160749228", "G2 robust z-score": 1.82, "G2 cells, % of GMNN control": 15.8}
{"Target gene": "PTPRG (protein tyrosine phosphatase receptor type G)", "PubChem SID": "SID160715400", "G2 robust z-score": 0.139, "G2 cells, % of GMNN control": 3.95}
{"Target gene": "PTPRG (protein tyrosine phosphatase receptor type G)", "PubChem SID": "SID160715402", "G2 robust z-score": -0.697, "G2 cells, % of GMNN control": -1.93}
{"Target gene": "PTPRG (protein tyrosine phosphatase receptor type G)", "PubChem SID": "SID160715403", "G2 robust z-score": -0.873, "G2 cells, % of GMNN control": -3.17}
{"Target gene": "LPGAT1 (lysophosphatidylglycerol acyltransferase 1)", "PubChem SID": "SID160723459", "G2 robust z-score": -0.609, "G2 cells, % of GMNN control": -1.32}
{"Target gene": "LPGAT1 (lysophosphatidylglycerol acyltransferase 1)", "PubChem SID": "SID160723460", "G2 robust z-score": 0.804, "G2 cells, % of GMNN control": 8.62}
{"Target gene": "LPGAT1 (lysophosphatidylglycerol acyltransferase 1)", "PubChem SID": "SID160723461", "G2 robust z-score": 2.44, "G2 cells, % of GMNN control": 20.1}
{"Target gene": "NUPR1 (nuclear protein 1, transcriptional regulator)", "PubChem SID": "SID160737980", "G2 robust z-score": -0.611, "G2 cells, % of GMNN control": -1.33}
{"Target gene": "NUPR1 (nuclear protein 1, transcriptional regulator)", "PubChem SID": "SID160737981", "G2 robust z-score": 0.0383, "G2 cells, % of GMNN control": 3.24}
{"Target gene": "NUPR1 (nuclear protein 1, transcriptional regulator)", "PubChem SID": "SID160737982", "G2 robust z-score": 0.0795, "G2 cells, % of GMNN control": 3.53}
{"Target gene": "IGSF11 (immunoglobulin superfamily member 11)", "PubChem SID": "SID160759232", "G2 robust z-score": -0.197, "G2 cells, % of GMNN control": 1.58}
{"Target gene": "IGSF11 (immunoglobulin superfamily member 11)", "PubChem SID": "SID160759233", "G2 robust z-score": 3.07, "G2 cells, % of GMNN control": 24.6}
{"Target gene": "IGSF11 (immunoglobulin superfamily member 11)", "PubChem SID": "SID160759235", "G2 robust z-score": -0.499, "G2 cells, % of GMNN control": -0.541}
{"Target gene": "MIR663AHG (MIR663A host gene)", "PubChem SID": "SID160732986", "G2 robust z-score": 1.45, "G2 cells, % of GMNN control": 13.2}
{"Target gene": "MIR663AHG (MIR663A host gene)", "PubChem SID": "SID160763436", "G2 robust z-score": 3.15, "G2 cells, % of GMNN control": 25.1}
{"Target gene": "MIR663AHG (MIR663A host gene)", "PubChem SID": "SID160763437", "G2 robust z-score": 0.0445, "G2 cells, % of GMNN control": 3.28}

No new results follow: an excerpt of the list.
{"Target gene": "PUM2 (pumilio RNA binding family member 2)", "PubChem SID": "SID160736131", "G2 robust z-score": -1.68, "G2 cells, % of GMNN control": -8.85}
{"Target gene": "ZYG11B (zyg-11 family member B, cell cycle regulator)", "PubChem SID": "SID160749226", "G2 robust z-score": -0.636, "G2 cells, % of GMNN control": -1.51}
{"Target gene": "ZYG11B (zyg-11 family member B, cell cycle regulator)", "PubChem SID": "SID160749227", "G2 robust z-score": 0.719, "G2 cells, % of GMNN control": 8.03}
